Patent publication US20210244799A1, “USES OF GLUCAGON-LIKE PEPTIDE-1 RECEPTOR AGONISTS FOR TREATING TRAUMA-INDUCED HEARING LOSS” (The Board of Regents of the University of Oklahoma, priority 2018, published 2021)
Entries after “also recorded” stand apart in the source; their conditions may differ. At least one compound was matched to its structure with a doubt left.

System: chinchillas exposed to blast (blast-induced hearing damage)
Test: ABR hearing threshold in chinchillas after three blast exposures, GLP-1R agonist pre-treatment
Type: in vivo, chinchilla
[1] = pre-treatment group, Day 1, average over 0.5-8 kHz

Q: For CCCCCCCCCCCCCCCC(=O)N[C@@H](CCC(=O)NCCCC[C@H](NC(=O)[C@H](C)NC(=O)[C@H](C)NC(=O)[C@H](CCC(N)=O)NC(=O)CNC(=O)[C@H](CCC(=O)O)NC(=O)[C@H](CC(C)C)NC(=O)[C@H](Cc1ccc(O)cc1)NC(=O)[C@H](CO)NC(=O)[C@H](CO)NC(=O)[C@@H](NC(=O)[C@H](CC(=O)O)NC(=O)[C@H](CO)NC(=O)[C@@H](NC(=O)[C@H](Cc1ccccc1)NC(=O)[C@@H](NC(=O)CNC(=O)[C@H](CCC(=O)O)NC(=O)[C@H](C)NC(=O)[C@@H](N)Cc1cnc[nH]1)[C@@H](C)O)[C@@H](C)O)C(C)C)C(=O)N[C@@H](CCC(=O)O)C(=O)N[C@@H](Cc1ccccc1)C(=O)N[C@H](C(=O)N[C@@H](C)C(=O)N[C@@H](Cc1c[nH]c2ccccc12)C(=O)N[C@@H](CC(C)C)C(=O)N[C@H](C(=O)N[C@@H](CCCNC(=N)N)C(=O)NCC(=O)N[C@@H](CCCNC(=N)N)C(=O)NCC(=O)O)C(C)C)[C@@H](C)CC)C(=O)O [Liraglutide], which “difference of ABR shifts between treated and control group” value (4 hours post-blast (D1)) is on record?
A: Its value is “not much difference”.

Q: And the hearing restoration (pre-treatment animals, over 14 days after blast, listed as GLP-1R agonist)?
A: The hearing restoration was “clearly observed; also recorded: clearly demonstrated”.

Q: And the “ABR threshold of post-blast on D1” value (pre-treatment group (s.c. 48 hours before blast), 3 blasts at 15-20 psi, Day 1 post-blast (4 hours), over frequencies 500 Hz-8 kHz)?
A: Its value is 70-92 dB.

Q: What about the “ABR threshold averaged over tested frequencies” value [1] of the same compound?
A: The value was 80 dB.

Q: What about the “ABR threshold shift averaged over tested frequencies” value [1] of the same compound?
A: The value was 45 dB.

Q: What about the hearing recovery (pretreated animals versus control after 14 days, average ABR threshold) of the same compound?
A: Its hearing recovery is 15 dB.

Q: What about the “ABR threshold averaged over tested frequencies” value (treatment group, after 14 days, average over 0.5-8 kHz, control 65 dB) of the same compound?
A: The value was 50 dB.
